# According to US20190307783A1, “USE OF ANTIVIRALS TO INHIBIT PROTOZOAN VIRUSES” (priority 2016, published 2019):
# At least one structure is not confirmed: it was looked up by name or label, or the drawing left a doubt.
# What was measured:
# [1] = system: LRV1 (LgyLRV1 capsid levels); details: screen at 100 μM or maximum concentration permitted by solubility, 2 days
# Text: Because LRV1 (like most Totiviridae) is not shed from the cell (33, 34), we developed a flow cytometric assay to measure intracellular LRV1 capsid levels on a per cell basis. To detect LRV1 we used binding to a rabbit anti-LgyLRV1 capsid antiserum (35) followed by detection with Alexa Fluor488-conjugated goat anti-rabbit IgG.
# (§1) Parasites were inoculated at 2×10^5 cells/mL into Schneider's media lacking supplemental adenine.
# For capsid flow cytometry, 10^7 cells were fixed at room temperature using 2% (wt/vol) paraformaldehyde (Thermo Fisher Scientific) in PBS for 2 minutes. They were then incubated in blocking buffer [10% (vol/vol) normal goat serum (Vector Laboratories, Burlingame, Calif., USA) and 0.2% TRITON X-100 in PBS] for 30 minutes at room temperature. Anti-LgyLRV1 capsid antibody (35) was added (1:20,000 dilution) and incubated at room temperature for 1 hour. After two washes with PBS, cells were resuspended in 200 μL PBS with Alexa Fluor488-labeled goat anti-rabbit IgG (Alexafluor, Invitrogen; 1:1,000; or Thermo Fisher Scientific; 1:2,000 dilution), and incubated 1 hour at room temperature. After two additional washes with PBS, cells were subjected to flow cytometry, gating for single cells using forward and side scatter and the data analyzed using […] software (BD Bioscience, San Jose, Calif., USA).
# L. guyanensis (LgyLRV1+) = assay: Drug-inhibition test: growth of LgyLRV1+ parasites; assay type: cell-based, Leishmania guyanensis; details: screen at 100 μM or maximum concentration permitted by solubility, 2 days
# Procedure: These compounds were examined for their ability to inhibit the growth of LgyLRV1^+ and virus levels by LRV1 capsid flow cytometry.
# Most studies were performed using luciferase-expressing transfectants of L. guyanensis (MHOM/BR/78/M4147) described previously [LRV1^+ LgyM4147/SSU:IR2SAT-LUC(b)c3 and LRV^−LgyM4147/pX63HYG/SSU:IR2SAT-LUC(b)c4] (54); these lines are termed LgyLRV1^+ and LgyLRV1^−, respectively. Two strains of LRV1^+L. braziliensis were examined: LEM2780 (MHOM/BO/90/CS) and LEM3874 (MHOM/BO/99/IMT252 no. 3) (12). Parasites were grown in Schneider's media (Sigma Aldrich, St. Louis, Mo., USA) prepared according to the supplier's instructions with pH adjusted to 6.5 and supplemented with 0.76 mM hemin, 2 μg/mL biopterin, 50 U/mL penicillin, 50 μg/mL streptomycin, and 10% (vol/vol) heat-inactivated FBS. Cell concentrations were determined using a Coulter Counter ([…], Indianapolis, Ind., USA).
# as §1
smiles,measurement,setting,value
"CCOC(=O)[C@H]1O[C@@H]1C(=O)N[C@@H](CC(C)C)C(=O)NCCC(C)C [e64d, E64-d]","Effect on LRV1 (capsid) levels, in words",[1],only minimal effects
same,"Effect on L. guyanensis growth, in words",L. guyanensis (LgyLRV1+),no effects
